From publication PMC6077975
No constants are given. Whether binding was seen depends on the method and setting. In cells and extracts the contact can be indirect. Some results given as binding are weak or reduced against the parent protein; the word gives no strength. Where a sequence is shown, tags or fusion partners need not be part of it.

Molecular target: ABCB6/HMT-1 of C. elegans, full length, expressed in worms as ABCB6/HMT-1::GFP and ABCB6/HMT-1::RFP (C. elegans) (UniProt G5EFD4)
Experiment: co-IP; membrane proteins of worms co-expressing ABCB6/HMT-1::GFP and ABCB6/HMT-1::RFP in IP buffer (1% PFO, 50 mM Tris-Cl, 150 mM NaCl, pH 7.4), pre-cleared with Protein G beads, anti-GFP conjugated beads 4 h at 4°C, immunoblot

B1: ABCB6/HMT-1 of C. elegans, full length, expressed in worms as ABCB6/HMT-1::GFP and ABCB6/HMT-1::RFP (protein, UniProt G5EFD4 1-801)
chain: MGFSPFLDECRAEGLWPIGPSCNKIISFGVYTFFIVVNFIVLCIPNSNSANNNYRRMTDDDASSTSKLTISKILSICTIFAVICQSIFYFCFTFYFHPYTHLLLAFCVSKLFFWILSLCSFSKWRNQPSTPISLAFAFSAALLIHCIPLTDWKKYFEPTSKNRGDLTFYIIELALVTVVFFFTIVTGLFNFSGCSSRESAWNNLSKKVVTVAPYIWPTKSISLQLRVVFCLFLLIIGRLINVSLPILSKWIVDELATPDTFQYSLLFLATFLKFLQGNGAMGGFLNTVRTYLWIPIQQYTTRELEVELFKHLHSLSLRWHLSRKTGQVLRVMDRGTSSVNNILNYILFNVVPTIADIVIAVIFFFSAFNAYFGLIVFGTMALYLTVTISITEWRTQYIREANEKDNATSAIATDSLINYETVKYYGNEEFEVNRFKNAIESYQVTEWKTQASLAFLNCLQNAIIGIGMIGGSVFVVYMIVHEKTLTVGDYVLFTTYLLQLYTPLNFFGTIYRVIQKAFVDMENMFDLMNDEVEVKDLPHALPYTDPRGTISVKNLTFEYNTGLPVIKNISFEIGNGQTVALVGSSGSGKSTLIRLLFRLFESTEGSIEFDGIDVRNYTMHSLRQQIGIVPQDTVLFNDTIMYNIRFGRPDASDEEVIEAAKAAMIHEKITSLPEGYATMVGERGLKLSGGEKQRVAIARTILKKPQFIFLDEATSALDTPTERAIQKCLEKLCKSRTGVVVAHRLSTVVNADLILVLDKGIILERGNHKELLAQQGTYASMWEAQIAEQRAKSIELGEELP
binding: binds
